These are yes or no findings as the source states them, for the method shown. Binding seen in cells or lysates may run through a third protein. Some entries that bind do so weakly or less than the wild type.
What was measured:
[1] = biological target: fused in sarcoma (FUS) (human (endogenous in MCF-7 and T47D)) (UniProt P35637); assay: co-IP; endogenous proteins; MCF-7_RBKO (and T47D_RBKO) lysates in NP-40 lysis buffer (20 mM Tris-HCl pH 7.6, 150 mM NaCl, 0.1% NP-40, 1 mM EDTA); PRMT5 or FUS antibody or control IgG overnight at 4 °C, protein-G Dyna beads, elution with 0.2 M glycine pH 2.0, immunoblot; in Fig. 4H, I cells were treated with DMSO or 200 nM pemrametostat for three days before the FUS co-IP
[2] = biological target: protein arginine methyltransferase 5 (PRMT5) (human (endogenous in MCF-7 and T47D)) (UniProt O14744); assay: as above

Amino acid sequences for entries named in this document (tags omitted). A change or cut given only in a name is not applied to a line headed by its entry.
UniProt P35637: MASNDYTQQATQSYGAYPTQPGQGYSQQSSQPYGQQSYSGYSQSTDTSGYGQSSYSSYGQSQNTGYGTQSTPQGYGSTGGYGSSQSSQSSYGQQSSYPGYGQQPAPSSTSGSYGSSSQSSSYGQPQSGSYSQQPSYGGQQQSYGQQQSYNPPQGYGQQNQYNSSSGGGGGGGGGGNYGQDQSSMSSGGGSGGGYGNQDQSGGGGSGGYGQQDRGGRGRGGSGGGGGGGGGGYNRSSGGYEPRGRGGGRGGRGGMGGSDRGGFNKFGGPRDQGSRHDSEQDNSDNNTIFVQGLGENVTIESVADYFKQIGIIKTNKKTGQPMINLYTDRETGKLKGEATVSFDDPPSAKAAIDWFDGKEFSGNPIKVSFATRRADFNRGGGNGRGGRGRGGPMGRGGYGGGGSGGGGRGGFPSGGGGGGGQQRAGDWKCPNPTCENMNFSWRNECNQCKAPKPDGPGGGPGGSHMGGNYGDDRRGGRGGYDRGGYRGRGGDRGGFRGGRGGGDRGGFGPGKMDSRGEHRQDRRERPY
UniProt O14744: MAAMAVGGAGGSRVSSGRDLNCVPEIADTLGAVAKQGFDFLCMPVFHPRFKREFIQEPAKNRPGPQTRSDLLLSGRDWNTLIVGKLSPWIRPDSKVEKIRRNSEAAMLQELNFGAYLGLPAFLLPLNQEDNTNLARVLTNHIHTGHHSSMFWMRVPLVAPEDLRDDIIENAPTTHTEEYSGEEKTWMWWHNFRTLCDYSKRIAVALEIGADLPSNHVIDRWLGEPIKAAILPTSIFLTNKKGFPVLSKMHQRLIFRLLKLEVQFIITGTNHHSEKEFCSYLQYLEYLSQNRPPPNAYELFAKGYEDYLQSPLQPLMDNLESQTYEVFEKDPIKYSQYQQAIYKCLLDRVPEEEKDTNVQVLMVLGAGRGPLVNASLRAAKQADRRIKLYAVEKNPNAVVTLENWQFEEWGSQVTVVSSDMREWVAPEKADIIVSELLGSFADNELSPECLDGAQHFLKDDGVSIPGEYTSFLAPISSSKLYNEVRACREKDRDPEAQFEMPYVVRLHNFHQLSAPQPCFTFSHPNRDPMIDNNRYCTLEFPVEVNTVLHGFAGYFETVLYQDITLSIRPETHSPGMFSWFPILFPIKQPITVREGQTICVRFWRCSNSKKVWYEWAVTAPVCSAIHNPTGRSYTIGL
UniProt Q9BQA1: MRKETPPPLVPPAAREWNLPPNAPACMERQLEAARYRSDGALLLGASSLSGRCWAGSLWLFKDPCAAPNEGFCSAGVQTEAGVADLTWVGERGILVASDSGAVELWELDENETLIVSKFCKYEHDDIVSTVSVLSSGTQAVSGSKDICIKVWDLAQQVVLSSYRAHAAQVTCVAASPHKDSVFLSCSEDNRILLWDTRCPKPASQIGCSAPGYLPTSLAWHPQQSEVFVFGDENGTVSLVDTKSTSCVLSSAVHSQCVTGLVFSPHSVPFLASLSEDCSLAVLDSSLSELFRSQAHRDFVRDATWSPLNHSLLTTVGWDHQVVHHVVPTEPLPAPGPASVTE

Substance | binding [1] | binding [2]
protein arginine methyltransferase 5 (PRMT5) (from UniProt O14744 1-637) (enzyme) | binds | –
MEP50 (also known as WDR77) (from UniProt Q9BQA1 1-342) | binds | –
fused in sarcoma (FUS) (from UniProt P35637 1-526) | – | binds

From publication PMC10937713
